Assay results: PMC6514849
Results are given in words; binding and its absence hold for the method and conditions named. Binding seen in cells or lysates may run through a third protein. Here binding means that the protein was enriched with, or labelled near, the bait; the list need not be complete.

Sequences of proteins named here, by UniProt entry; tags and fusion partners are left off. Residues count along the entry.
UniProt O95573: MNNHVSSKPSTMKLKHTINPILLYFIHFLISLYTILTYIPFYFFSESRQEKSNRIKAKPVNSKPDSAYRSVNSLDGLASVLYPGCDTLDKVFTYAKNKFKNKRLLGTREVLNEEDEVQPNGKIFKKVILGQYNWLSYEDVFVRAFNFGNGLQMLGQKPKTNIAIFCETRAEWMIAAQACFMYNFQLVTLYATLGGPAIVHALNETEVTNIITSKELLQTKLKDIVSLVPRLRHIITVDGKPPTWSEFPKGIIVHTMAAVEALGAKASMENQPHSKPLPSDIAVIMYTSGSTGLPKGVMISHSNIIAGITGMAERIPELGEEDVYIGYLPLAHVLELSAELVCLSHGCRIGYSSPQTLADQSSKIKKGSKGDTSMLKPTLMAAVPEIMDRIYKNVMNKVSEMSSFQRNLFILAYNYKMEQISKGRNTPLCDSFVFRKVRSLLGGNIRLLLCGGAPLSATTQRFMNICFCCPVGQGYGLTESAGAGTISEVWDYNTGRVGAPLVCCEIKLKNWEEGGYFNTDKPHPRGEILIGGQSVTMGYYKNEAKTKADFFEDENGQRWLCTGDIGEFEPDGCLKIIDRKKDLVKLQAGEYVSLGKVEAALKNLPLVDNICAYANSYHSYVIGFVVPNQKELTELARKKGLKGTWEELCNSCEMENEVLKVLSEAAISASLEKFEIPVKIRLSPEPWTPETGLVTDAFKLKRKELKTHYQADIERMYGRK
UniProt P17066: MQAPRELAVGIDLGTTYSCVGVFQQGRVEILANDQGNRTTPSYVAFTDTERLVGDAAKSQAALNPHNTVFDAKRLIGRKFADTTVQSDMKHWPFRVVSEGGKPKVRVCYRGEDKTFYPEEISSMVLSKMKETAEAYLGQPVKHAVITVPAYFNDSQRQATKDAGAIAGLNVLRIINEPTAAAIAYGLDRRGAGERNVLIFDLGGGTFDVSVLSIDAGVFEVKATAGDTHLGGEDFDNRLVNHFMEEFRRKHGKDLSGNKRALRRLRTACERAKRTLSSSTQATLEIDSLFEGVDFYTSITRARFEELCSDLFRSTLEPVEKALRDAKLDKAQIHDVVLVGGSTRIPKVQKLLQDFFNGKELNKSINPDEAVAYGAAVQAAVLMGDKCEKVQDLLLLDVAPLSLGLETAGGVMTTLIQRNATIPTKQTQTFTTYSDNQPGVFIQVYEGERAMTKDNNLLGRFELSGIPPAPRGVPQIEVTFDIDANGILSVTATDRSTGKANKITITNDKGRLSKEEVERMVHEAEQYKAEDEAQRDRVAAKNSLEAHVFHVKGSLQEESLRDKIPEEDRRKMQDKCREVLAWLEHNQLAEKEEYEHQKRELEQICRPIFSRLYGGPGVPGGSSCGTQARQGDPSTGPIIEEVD
UniProt P04792: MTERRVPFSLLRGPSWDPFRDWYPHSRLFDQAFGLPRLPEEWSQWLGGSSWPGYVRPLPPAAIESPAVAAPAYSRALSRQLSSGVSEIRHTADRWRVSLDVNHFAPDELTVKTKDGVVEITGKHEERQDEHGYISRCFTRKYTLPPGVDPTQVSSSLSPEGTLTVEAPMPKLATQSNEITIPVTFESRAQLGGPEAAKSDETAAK
UniProt P31040, residues 43-664: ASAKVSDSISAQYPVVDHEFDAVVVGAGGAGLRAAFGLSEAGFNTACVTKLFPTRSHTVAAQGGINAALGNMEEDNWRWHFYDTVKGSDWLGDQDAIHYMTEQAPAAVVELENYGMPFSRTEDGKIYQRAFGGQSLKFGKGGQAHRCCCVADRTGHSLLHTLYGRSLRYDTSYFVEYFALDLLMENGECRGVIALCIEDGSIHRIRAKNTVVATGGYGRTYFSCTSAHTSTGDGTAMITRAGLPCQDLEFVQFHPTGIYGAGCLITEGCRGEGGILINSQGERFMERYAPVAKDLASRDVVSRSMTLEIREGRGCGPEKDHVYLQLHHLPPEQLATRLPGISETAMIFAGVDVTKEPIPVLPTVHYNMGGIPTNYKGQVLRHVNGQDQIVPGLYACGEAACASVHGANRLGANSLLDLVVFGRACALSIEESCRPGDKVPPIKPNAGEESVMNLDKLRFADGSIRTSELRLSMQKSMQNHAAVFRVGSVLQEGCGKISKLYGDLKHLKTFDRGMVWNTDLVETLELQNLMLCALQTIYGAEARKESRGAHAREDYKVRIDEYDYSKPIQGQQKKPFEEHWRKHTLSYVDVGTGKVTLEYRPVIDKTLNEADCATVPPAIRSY

T1: PDZ binding kinase (PBK), endogenous in C4-2 cells (human (endogenous in C4-2)) (UniProt Q96KB5)
T1 sequence: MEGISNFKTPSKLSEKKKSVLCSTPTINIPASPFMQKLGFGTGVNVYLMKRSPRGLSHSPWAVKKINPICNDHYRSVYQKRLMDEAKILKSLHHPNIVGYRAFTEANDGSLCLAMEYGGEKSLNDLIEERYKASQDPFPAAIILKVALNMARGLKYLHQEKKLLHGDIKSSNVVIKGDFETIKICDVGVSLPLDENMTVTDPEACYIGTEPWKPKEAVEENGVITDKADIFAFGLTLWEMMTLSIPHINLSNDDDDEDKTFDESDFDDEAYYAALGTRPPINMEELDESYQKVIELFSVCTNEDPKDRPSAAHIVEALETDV

B1: ADT3 (protein, UniProt P12236 1-298)
chain: MTEQAISFAKDFLAGGIAAAISKTAVAPIERVKLLLQVQHASKQIAADKQYKGIVDCIVRIPKEQGVLSFWRGNLANVIRYFPTQALNFAFKDKYKQIFLGGVDKHTQFWRYFAGNLASGGAAGATSLCFVYPLDFARTRLAADVGKSGTEREFRGLGDCLVKITKSDGIRGLYQGFSVSVQGIIIYRAAYFGVYDTAKGMLPDPKNTHIVVSWMIAQTVTAVAGVVSYPFDTVRRRMMMQSGRKGADIMYTGTVDCWRKIFRDEGGKAFFKGAWSNVLRGMGGAFVLVLYDELKKVI
B2: SCO1 (protein, UniProt O75880 68-301)
chain: STARPPPPWSQKGPGDSTRPSKPGPVSWKSLAITFAIGGALLAGMKHVKKEKAEKLEKERQRHIGKPLLGGPFSLTTHTGERKTDKDYLGQWLLIYFGFTHCPDVCPEELEKMIQVVDEIDSITTLPDLTPLFISIDPERDTKEAIANYVKEFSPKLVGLTGTREEVDQVARAYRVYYSPGPKDEDEDYIVDHTIIMYLIGPDGEFLDYFGQNKRKGEIAASIATHMRPYRKKS
B3: SCO2 (protein, UniProt O43819 42-266)
chain: GPAETGGQGQPQGPGLRTRLLITGLFGAGLGGAWLALRAEKERLQQQKRTEALRQAAVGQGDFHLLDHRGRARCKADFRGQWVLMYFGFTHCPDICPDELEKLVQVVRQLEAEPGLPPVQPVFITVDPERDDVEAMARYVQDFHPRLLGLTGSTKQVAQASHSYRVYYNAGPKDEDQDYIVDHSIAIYLLNPDGLFTDYYGRSRSAEQISDSVRRHMAAFRSVLS

Target: T1, PDZ binding kinase (PBK), endogenous in C4-2 cells (human (endogenous in C4-2))
Assay: affinity purification with mass spectrometry; RIME (rapid immunoprecipitation mass spectrometry) on C4-2 cells with a PBK antibody (Novus); filtered using IgG RIME

binding, binds:
ACSL3 (from UniProt O95573 1-720)
ATPB (from UniProt P06576 48-529)
HSP76 (from UniProt P17066 1-643)
HSPB1 (from UniProt P04792 1-205)
SDHA (from UniProt P31040 43-664)
B1
B2
B3
